Measurements: PubChem BioAssay AID540276 (National Center for Advancing Translational Sciences (NCATS), 2011)
About 5,400 (1.8%) of roughly 300,000 compounds were called active. Inconclusive results, whose numbers are uncertain, are shown with a selection of clear calls. The call rests on the fitted dose curve; tested in HEK293 cells. Where the call is inconclusive, the potency comes from a doubtful curve fit.
On the % scale 0 is the no-effect control and ±100 the full control effect; potency means the concentration at half of the fitted maximal effect.

Test: qHTS for inhibitors of binding or entry into cells for Marburg Virus
Conditions: Marburg virus pseudotyped entry inhibition, cell reporter; activity change, negative = inhibition: at 37.8 µM (top of the series) unless noted
For O=C(c1ccc2c(c1)OCO2)N(CC1CCCO1)C1(C(=O)NC2CCCCC2)CCCCC1 (stereo not drawn), the Potency was inconclusive: 16.4 µM [inhibitor, single point].
In the case of CCCCCCCOc1ccc(C2(C)NC(=O)NC2=O)cc1 (stereo not drawn), the Potency was inconclusive: 0.282 µM [inhibitor, full curve].
In the case of O=c1c(C=NCc2cccnc2)c(C(F)(F)F)[nH]n1-c1nc2ccccc2s1, the Potency was inconclusive: 3.98 µM [inhibitor, partial curve, poor fit].
With O=C(NCc1ccccc1Cl)C1CCN(S(=O)(=O)c2ccc(F)cc2)CC1 the Potency was inconclusive: 35.5 µM [inhibitor, single point].
With COc1ccc(OCCCC(=O)Nc2ccc3c(c2)OCCO3)cc1 the “activity change, negative = inhibition” value was inactive: 17.1%.
For Cc1cc(C)nc(Nc2n[nH]c(-c3ccccc3Br)n2)n1, the “activity change, negative = inhibition” value was inactive: 14.4%.
With O=C(Oc1coc(CSc2ncccn2)cc1=O)c1cccs1 the “activity change, negative = inhibition” value was inactive: -10.1% [at 46.1 µM].
In the case of O=c1[nH]c2cc(Cl)ccc2c(O)c1-c1ccc(Oc2ccccc2)cc1, the Potency was inconclusive: 0.0501 µM [inhibitor, full curve, poor fit].
In the case of COc1ccc(OC)c(C(=O)CN2CCN(S(=O)(=O)c3ccc(Br)cc3)CC2)c1, the Potency was “inactive”.
With c1ccc(Cn2nnnc2C(c2cccnc2)N2CCN(C3CCCCC3)CC2)cc1 (stereo not drawn) the Potency was inconclusive: 32.6 µM [inhibitor, single point].
For Cc1ccc(NC(=O)CSC2=C(C#N)[C@H](c3ccc4c(c3)OCO4)CC(=O)N2)cc1C, the “activity change, negative = inhibition” value was inactive: -6.33%.
For CCOC(=O)C(NC(C)=O)C(OC(C)=O)c1cccc([N+](=O)[O-])c1 (stereo not drawn), the “activity change, negative = inhibition” value was inactive: 0.877%.
In the case of CCOc1ccc(CNC(=O)C2CCN(S(=O)(=O)CC)CC2)cc1OC, the “activity change, negative = inhibition” value was inactive: 12.8%.
With CN(C)S(=O)(=O)c1ccc(Oc2ccc(S(=O)(=O)N(C)C)cc2)cc1 the Potency was inconclusive: 11.2 µM [inhibitor, partial curve].
With CC(C)c1ccc(NC(=O)N2CCc3ccccc3C2)cc1 the Potency was inconclusive: 35.5 µM [inhibitor, single point].
With Cc1cc(C)n(CCc2nc(-c3ccc(C)o3)cs2)n1 the “activity change, negative = inhibition” value was inactive: -2.23%.
For CO/N=C(/c1nonc1N)N1CCN(c2ccc([N+](=O)[O-])cc2)CC1, the Potency was inconclusive: 1.41 µM [inhibitor, partial curve, poor fit].
With COC(=O)c1ccc(N2CCCCC2)c(N)c1 the Potency was inconclusive: 35.5 µM [activator, single point].
With Fc1cc(Br)ccc1NC(=S)Nc1ccccc1 the Potency was inconclusive: 31.6 µM [activator, single point].
In the case of CCOC(=O)c1c(C)[nH]c(-c2csc(N)n2)c1C, the Potency was inconclusive: 12.6 µM [inhibitor, partial curve, poor fit].
For O=C(c1ccc(N2CCN(C3CC(=O)N(Cc4cccs4)C3=O)CC2)cc1)c1cccnc1 (stereo not drawn), the Potency was inconclusive: 15.8 µM [inhibitor, single point].
With Nc1cccc(Nc2nc(OC(C(F)(F)F)C(F)(F)F)nc(OC(C(F)(F)F)C(F)(F)F)n2)c1 the Potency was inconclusive: 22.4 µM [inhibitor, single point].
In the case of CCN(C(=O)c1ccc2c(=O)n3c(nc2c1)CCCCC3)c1cc(C)ccc1C, the “activity change, negative = inhibition” value was inactive: 10.2% [at 46.1 µM].
With CCN1CCN(Cc2coc3ccc(C)cc3c2=O)CC1 the Potency was inconclusive: 14.6 µM [activator, partial curve, poor fit].
For O=C1CCCN2N=C(SCC(=O)Nc3cccc(F)c3)SC2=N1, the Potency was inconclusive: 12.6 µM [inhibitor, partial curve, poor fit].
With COc1cccc(-n2c(O)c(C=NCc3ccc4c(c3)OCO4)c(=O)[nH]c2=O)c1 the “activity change, negative = inhibition” value was inactive: -1.64%.
With Cc1ccc(C(=O)Nc2nc(C)c(C)s2)o1 the Potency was inconclusive: 35.5 µM [inhibitor, single point].
For Cc1cc(OCC(=O)N(C(C)C)C(C)C)ccc1Cl, the “activity change, negative = inhibition” value was inactive: -1.29% [at 46.1 µM].
For COc1ccccc1NC(=O)NNC(=O)c1ccc2c(c1)NC(=O)C(C)(C)O2, the Potency was inconclusive: 35.5 µM [inhibitor, single point].
For COc1ccc(CCCc2nnc(SCc3nc4ccccc4c(=O)[nH]3)n2C)cc1C, the Potency was inconclusive: 14.6 µM [inhibitor, partial curve, poor fit].
In the case of O=C1COc2ccc(-c3cc(-c4ccc(F)cc4)c4c(n3)-c3ccccc3OC4)cc2N1, the Potency was inconclusive: 3.16 µM [activator, single point].
In the case of CCCn1nnnc1NC(=O)COc1ccc(Cl)cc1C, the Potency was inconclusive: 4.47 µM [inhibitor, partial curve, poor fit].
With NS(=O)(=O)c1ccc(CCNC(=O)CSc2nc3ccsc3c(=O)n2CCCCCC(=O)O)cc1 the “activity change, negative = inhibition” value was inactive: 19.9% [at 46.1 µM].
In the case of Cc1ccc(C(=O)c2cc([N+](=O)[O-])ccc2N2CCN(C)CC2)cc1, the Potency was inconclusive: 4.47 µM [inhibitor, full curve].
For Cc1cc(O)c(C(C)C)cc1N=Nc1ccccc1C(=O)O, the “activity change, negative = inhibition” value was inactive: -8.49% [at 46.1 µM].
In the case of CCCCCCCCCCCCOC(=O)C[N+](C)(C)C, the “activity change, negative = inhibition” value was inactive: 5.11% [at 46.1 µM].
In the case of COc1ccc(N2C(=O)CCC2=O)cc1, the “activity change, negative = inhibition” value was inactive: -15.1%.
For Cc1ccc(C)c(NC(=O)CCc2ccc(S(=O)(=O)NC3CCCCC3)cc2)c1, the Potency was inconclusive: 12.6 µM [inhibitor, partial curve, poor fit].
In the case of OCCN1CCN(CC(O)COc2ccc(Cl)cc2)CC1 (stereo not drawn), the “activity change, negative = inhibition” value was inactive: 19.3%.
With COc1cc2c(cc1OC)C1C(=O)c3ccc4c(c3OC1CO2)CC(C(C)C)O4 (stereo not drawn) the Potency was active: 3.55 µM.
In the case of O=C(c1ccccc1)c1ccccc1C(=O)N1CCCC1, the Potency was inconclusive: 4.11 µM [inhibitor, single point].
In the case of Cn1c(COc2ccccc2)nc2ccccc21, the Potency was inconclusive: 14.1 µM [activator, single point].
In the case of O=C(NCCCc1ccccc1)c1cnc2n(c1=O)CCS2, the Potency was inconclusive: 4.61 µM [activator, partial curve, poor fit].
With COc1ccc(C(=O)Nc2ccc3[nH]ccc3c2)cc1 the Potency was inconclusive: 1.41 µM [inhibitor, full curve, poor fit].
For C/C(CCC(=O)OC[C@H]1O[C@H](C#Cc2ccccc2)C=C[C@@H]1Oc1ccc(C)cc1)=N\O[C@@H](C)CN1CCCCc2nc(C)c(C)cc21, the Potency was inconclusive: 5.8 µM [inhibitor, partial curve, poor fit].
With CCCC(=O)N1CCCC(c2nc(-c3cccc(OC)c3)no2)C1 (stereo not drawn) the Potency was inconclusive: 14.6 µM [inhibitor, partial curve, poor fit].
For C=CCn1cc(C=C2C(=O)NC(=O)NC2=O)c2ccccc21, the Potency was inconclusive: 31.6 µM [activator, single point].
With O=C(O)c1ccccc1C(=O)N1CCN(c2ccccc2)CC1 the Potency was inconclusive: 5.62 µM [activator, single point].
For COC(=O)c1ccc(C(=O)OCc2nc3cc4ccccc4cc3[nH]2)cc1, the “activity change, negative = inhibition” value was inactive: 0.396%.
With COc1ccc(CC(=O)Nc2nc(-c3ccc(F)c(F)c3)cs2)cc1 the Potency was inconclusive: 25.1 µM [inhibitor, single point].
For COC(=O)c1ccc(NC(=O)CN(c2cccc(C(F)(F)F)c2)S(C)(=O)=O)cc1, the “activity change, negative = inhibition” value was inactive: 3.75% [at 46.1 µM].
With CC(C)CNC(=O)NC(=O)COC(=O)COc1ccc(Cl)cc1Cl the Potency was inconclusive: 12.6 µM [activator, single point].
For Cc1ccccc1C(=O)N1CCC(C(=O)Nc2nc3ccc(F)cc3s2)CC1, the “activity change, negative = inhibition” value was inactive: -4.33%.
For COc1cccc(CN(C)C(=O)CC23CC4CC(CC(C4)C2)C3)c1OC, the Potency was inconclusive: 7.08 µM [inhibitor, partial curve, poor fit].
In the case of CCn1nc(CC(=O)Nc2ccc(-n3cnnn3)c(C)c2)c2ccccc2c1=O, the Potency was inconclusive: 1 µM [activator, single point].
With CC(=O)Nc1ccccc1C(=O)C(=O)Nc1ccccc1 the Potency was inconclusive: 10 µM [activator, partial curve, poor fit].
With C[C@H]1c2cccc(O)c2C(O)=C2C(=O)[C@]3(O)C(O)=C(C(N)=O)C(=O)[C@@H](N(C)C)[C@@H]3[C@@H](O)[C@@H]21 the Potency was “inactive”.
For CC1CN(CC(O)COc2ccc(C#N)cc2)CCN1CC(O)COc1ccc(C#N)cc1 (stereo not drawn), the Potency was inconclusive: 1.78 µM [inhibitor, partial curve, poor fit].
In the case of CCOC(=O)C1(CCc2ccccc2)CCN(C(=O)CN2C(=O)CSC2=O)CC1, the Potency was inconclusive: 35.5 µM [activator, partial curve, poor fit].
For Cc1ccc(S(=O)(=O)N2CCN(C(=O)Cn3c(=O)cnc4ccccc43)CC2)c(C)c1, the Potency was inconclusive: 0.112 µM [inhibitor, full curve].
For O=S(=O)(c1ccc(Oc2ccc(Cl)cc2)nc1)N1CCOCC1, the “activity change, negative = inhibition” value was inactive: -13.4% [at 46.1 µM].
With COc1ccc(C(=O)Nc2c(N)nc(SCC(=O)Nc3ccc(NC(C)=O)cc3)[nH]c2=O)cc1 the “activity change, negative = inhibition” value was inactive: -1.55%.
In the case of COC(=O)N[C@@H](c1ccc(Br)cc1)C(C(=O)OC)C(=O)OC, the Potency was inconclusive: 0.668 µM [inhibitor, partial curve, poor fit].
In the case of COc1cccc(NC(=O)N2CCC(NC(=O)C(Cc3ccccc3OC)NC(C)=O)CC2)c1 (stereo not drawn), the “activity change, negative = inhibition” value was inactive: 4.83% [at 46.1 µM].
For O=C(O)c1cccc(Nc2ccnc(Nc3cccc(C(=O)O)c3)n2)c1, the Potency was inconclusive: 2 µM [inhibitor, full curve].
With CC(C)Oc1ccc(-c2nc(NCC3CCCO3)c3ccccc3n2)cc1 (stereo not drawn) the Potency was inconclusive: 11.2 µM [inhibitor, partial curve, poor fit].
In the case of O=c1[nH]c(C2CCN(S(=O)(=O)Cc3ccccc3)CC2)nc2c1nnn2Cc1ccccc1, the “activity change, negative = inhibition” value was inactive: -4.38% [at 46.1 µM].
For O=S(=O)(NCc1ccccc1Cl)c1cnc[nH]1, the Potency was inconclusive: 14.1 µM [activator, single point].
